According to patent CN115521378A:
No constants are given. Whether binding was seen depends on the method and setting. Some binding calls cover weakened binding; strength is not graded here.

The chains behind the UniProt entries cited, without tags or fusion partners.
UniProt Q9NZQ7: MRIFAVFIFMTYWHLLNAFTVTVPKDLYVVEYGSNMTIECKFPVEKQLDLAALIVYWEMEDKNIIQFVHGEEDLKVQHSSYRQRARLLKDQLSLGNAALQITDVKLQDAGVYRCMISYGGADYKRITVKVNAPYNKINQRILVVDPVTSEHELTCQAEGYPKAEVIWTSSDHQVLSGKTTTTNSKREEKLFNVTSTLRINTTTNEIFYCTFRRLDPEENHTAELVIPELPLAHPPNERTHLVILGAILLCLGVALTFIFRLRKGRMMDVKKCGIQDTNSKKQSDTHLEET

B1: AH00233 (antibody, V domains shown)
VH: QVQLVQSGAEVKKPGSSVKVSCKASGYTFTSNWMHWDRQAPGQGLDWMGMIHPNSAIKYNEKFKSRVTITADKSTSTAYMELSSLRSEDTAVYYCARSYYGSSPYFFDYWGQGTMVTVSS
VL: DIQMTQSPSSLSASVGDRVTISCRASQDISKYLNWYQQKPGKAVKFLIYYTSRLHSGVPSRFSGSGSGTDYTLTISSLQPEDFATYFCQQGDTLPWTFGGGTKVEIK
B2: CBM (antibody, V domains shown)
VH: QVQLVQSGAEVKKPGSSVKVSCKASGYTFTSNWMHWMKQAPGQGLEWIGMIHPNSAIKYNEKFKSRATLTADKSTSTAYMELSSLRSEDTAVYYCARSYYGSSPYFFDYWGQGTMVTVSS
VL: DIQMTQSPSSLSASVGDRVTITCRASQDISKYLNWYQQKPGKAPKFLIYYTSRLHSGVPSRFSGSGSGTDYTLTISSLQPEDVATYFCQQGDTLPWTFGGGTKVEIK
B3: hu13H6D3 (antibody, V domains shown)
VH: QVQLVQSGAEVKKPGSSVKVSCKASGYTFTSNWMHWVRQAPGQGLEWMGMIHPNSAIKYNEKFKSRVTITADKSTSTAYMELSSLRSEDTAVYYCARSYYGSSPYFFDYWGQGTMVTVSS
VL: DIQMTQSPSSLSASVGDRVTITCRASQDISKYLNWYQQKPGKAPKLLIYYTSRLHSGVPSRFSGSGSGTDFTLTISSLQPEDFATYYCQQGDTLPWTFGGGTKVEIK
B4: 5BM (antibody, V domains shown)
VH: QVQLVQSGAEVKKPGSSVKVSCKASGYTFTSNWMHWMRQAPGQGLDWIGMIHPNSAIKYNEKFKSRATLTADKSTSTAYMELSSLRSEDTAVYYCARSYYGSSPYFFDYWGQGTMVTVSS
VL: DIQMTQSPSSLSASVGDRVTISCRASQDISKYLNWYQQKPGKAVKFLIYYTSRLHSGVPARFSGSGSGTDYTLTISSLQPEDFATYFCQQGDTLPWTFGGGTKVEIK
B5: AH00228 (antibody, V domains shown)
VH: QVQLVQSGAEVKKPGSSVKVSCKASGYTFTSNWMHWMRQAPGQGLEWMGMIHPNSAIKYNEKFKSRVTLTADKSTSTAYMELSSLRSEDTAVYYCARSYYGSSPYFFDYWGQGTMVTVSS
VL: DIQMTQSPSSLSASVGDRVTISCRASQDISKYLNWYQQKPGKAVKFLIYYTSRLHSGVPARFSGSGSGTDYTLTISSLQPEDFATYFCQQGDTLPWTFGGGTKVEIK
B6: AH00229 (antibody, V domains shown)
VH: QVQLVQSGAEVKKPGSSVKVSCKASGYTFTSNWMHWVRQAPGQGLDWMGMIHPNSAIKYNEKFKSRATITADKSTSTAYMELSSLRSEDTAVYYCARSYYGSSPYFFDYWGQGTMVTVSS
VL: DIQMTQSPSSLSASVGDRVTISCRASQDISKYLNWYQQKPGKAVKFLIYYTSRLHSGVPSRFSGSGSGTDYTLTISSLQPEDFATYFCQQGDTLPWTFGGGTKVEIK
B7: AH00230 (antibody, V domains shown)
VH: QVQLVQSGAEVKKPGSSVKVSCKASGYTFTSNWMHWMRQAPGQGLDWMGMIHPNSAIKYNEKFKSRVTITADKSTSTAYMELSSLRSEDTAVYYCARSYYGSSPYFFDYWGQGTMVTVSS
VL: DIQMTQSPSSLSASVGDRVTISCRASQDISKYLNWYQQKPGKAVKFLIYYTSRLHSGVPARFSGSGSGTDYTLTISSLQPEDFATYFCQQGDTLPWTFGGGTKVEIK
B8: AH00231 (antibody, V domains shown)
VH: QVQLVQSGAEVKKPGSSVKVSCKASGYTFTSNWMHWMRQAPGQGLEWMGMIHPNSAIKYNEKFKSRVTITADKSTSTAYMELSSLRSEDTAVYYCARSYYGSSPYFFDYWGQGTMVTVSS
VL: DIQMTQSPSSLSASVGDRVTITCRASQDISKYLNWYQQKPGKAVKFLIYYTSRLHSGVPARFSGSGSGTDYTLTISSLQPEDFATYFCQQGDTLPWTFGGGTKVEIK
B9: AH00232 (antibody, V domains shown)
VH: QVQLVQSGAEVKKPGSSVKVSCKASGYTFTSNWMHWMRQAPGQGLDWIGMIHPNSAIKYNEKFKSRVTLTADKSTSTAYMELSSLRSEDTAVYYCARSYYGSSPYFFDYWGQGTMVTVSS
VL: DIQMTQSPSSLSASVGDRVTITCRASQDISKYLNWYQQKPGKAVKFLIYYTSRLHSGVPARFSGSGSGTDYTLTISSLQPEDFATYYCQQGDTLPWTFGGGTKVEIK

The binders below were run against PD-L1蛋白 (human) (UniProt Q9NZQ7) (assay: SPR (Biacore T200), antibody captured by anti-human Fc on CM5, PD-L1 as analyte).
In the case of B1, the binding is reported as “binds”.
For B2, the binding was “binds”.
For B3, the binding was “binds”.
For B4, the binding was “binds”.
B5 was tested, and the binding was “binds”.
For B6, the binding was “binds”.
B7 was tested, and the binding was “binds”.
For B8, the binding was “binds”.
For B9, the binding was “binds”.
